Record: PubChem BioAssay AID1671195 (Yale University, 2021)
Screen: 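Genes whose knockdown alters LDL uptake in liver cancer cells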 (primary screen). Cell system: human Huh7 hepatoma cells. Reagent: siRNA pool against human genes, 18 nM. Timing: about 2 to 2.5 days of knockdown, then 8 h LDL uptake. Challenge: DiI-labelled LDL at 30 µg/ml for 8 h, in lipoprotein-deficient serum medium. Measurement: 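Fluorescent LDL signal imaged in cells, scaled to the plate median, robust z-score for each replicate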. Direction: robust z-score: higher = more LDL uptake after knockdown. Rule for the call: 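a gene counts as active if at least two replicate z-scores exceed ±2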.
The deposit covers about 22,000 reagents; shown is an unselected part. About 1,510 of all reagents (6.9%) count as active. 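Active includes knockdowns raising or lowering LDL uptake; positive z-scores mean more uptake, negative mean less.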

| gene symbol | PubChem SID | robust z-score, replicate 1 | robust z-score, replicate 2 | robust z-score, replicate 3 | activity call |
| --- | --- | --- | --- | --- | --- |
| GYG2 (glycogenin 2) | SID442891343 | 0.647 | -0.0253 | 0.272 | inactive |
| KBTBD11 (kelch repeat and BTB domain containing 11) | SID442883484 | 2.21 | 3.54 | 2.66 | active |
| AQP2 (aquaporin 2) | SID442900549 | -0.708 | -0.811 | -0.801 | inactive |
| RGP1 (RGP1 partner of RAB6A GEF complex) | SID442890530 | 0.957 | 1.12 | -0.86 | inactive |
| FRMD8 (FERM domain containing 8) | SID442895158 | 0.165 | 0.181 | -0.768 | inactive |
| SCNN1D (sodium channel epithelial 1 subunit delta) | SID442892874 | 0.0775 | -0.66 | 0.928 | inactive |
| SMCO2 (single-pass membrane protein with coiled-coil domains 2) | SID442885363 | 1.83 | 1.21 | 1.59 | inactive |
| PPP2R3C (protein phosphatase 2 regulatory subunit B''gamma) | SID442886134 | 0.839 | 2.64 | 0.293 | inactive |
| SCHIP1 (schwannomin interacting protein 1) | SID442899213 | 0.567 | 0.14 | -2.48 | inactive |
| MYOZ3 (myozenin 3) | SID442899121 | -0.679 | -0.932 | -0.126 | inactive |
| NUDT14 (nudix hydrolase 14) | SID442904236 | -1.6 | -1.5 | -1.51 | inactive |
| GRIP2 (glutamate receptor interacting protein 2) | SID442895648 | -0.507 | -0.128 | 0.0639 | inactive |
| XIAP (X-linked inhibitor of apoptosis) | SID442890899 | 0.584 | 0.231 | 0.255 | inactive |
| TIMM17A (translocase of inner mitochondrial membrane 17A) | SID442902732 | -1.88 | -0.19 | -1.35 | inactive |
| SFTPC (surfactant protein C) | SID442896852 | -0.477 | 0.693 | -1.18 | inactive |
| LOC286129 (retired record) | SID442898846 | -0.176 | -0.493 | -0.968 | inactive |
| LOC441243 (retired record) | SID442887693 | 1.67 | 0.329 | 0.589 | inactive |
| PRRT2 (proline rich transmembrane protein 2) | SID442891239 | -0.132 | 0.495 | 0.577 | inactive |
| LOC388277 (retired record) | SID442899064 | -0.632 | -0.484 | -0.6 | inactive |
| ZFP3 (ZFP3 zinc finger protein) | SID442901581 | -0.897 | -1.14 | -0.725 | inactive |
| LRRC37B (leucine rich repeat containing 37B) | SID442900191 | -0.215 | -1.14 | -0.828 | inactive |
| CXXC4 (CXXC finger protein 4) | SID442886191 | 1.37 | 1.24 | 1.09 | inactive |
| CXorf38 (chromosome X open reading frame 38) | SID442887717 | 0.723 | 0.699 | 1.15 | inactive |
| PCDHGB1 (protocadherin gamma subfamily B, 1) | SID442887933 | 0.57 | 0.902 | 0.97 | inactive |
| LAMTOR3 (late endosomal/lysosomal adaptor, MAPK and MTOR activator 3) | SID442883657 | 3.71 | 1.57 | 2.21 | active |
| ZW10 (zw10 kinetochore protein) | SID442892654 | 0.282 | -0.00743 | 0.146 | inactive |
| CDC42BPB (CDC42 binding protein kinase beta) | SID442885754 | 1.57 | 0.955 | 1.62 | inactive |
| TRIL (TLR4 interactor with leucine rich repeats) | SID442901620 | -0.0172 | -1.11 | -1.66 | inactive |

As entered above:
For “robust z-score, replicate 1”, PCDHGB1 (protocadherin gamma subfamily B, 1) [SID442887933] has 0.57
Under “robust z-score, replicate 3”, CDC42BPB (CDC42 binding protein kinase beta) [SID442885754] has 1.62
